Measurements: patent publication US20220168329A1, “COMBINATORIAL DRUG TREATMENT OF CANCER” (University of Virginia Patent Foundation, priority 2019, published 2022)

Tested on: PANC-1 cells
Assay: RNA-Seq transcriptional response to Gem
Type: cell-based, Human
Details: IC30 Gem for 24 hours
Procedure: Control sgRNA (CgRNA) and PRMT5-KO cells were treated with gemcitabine (200 nM) or EPZ015666 (500 nM) for 48 hours. Total RNA was purified using an RNeasy mini kit (Qiagen #74104) by following the kit instructions. mRNA was isolated by using NEBNext Poly(A) mRNA Magnetic Isolation Module (New England Biolabs #7490S). RNA-Seq libraries were prepared using the NEBNext Ultra Directional RNA Library Prep Kit for Illumina (New England Biolabs #E7420S) by following the company's protocol. A Qubit measurement and bioanalyzer were used to determine the library quality.
General sequencing data quality was examined using FastQC (v. 0.11.5). […] The resulting sam files were sorted by reading names and converted to bam files using samtools (v. 1.9) sort command. For ATAC-Seq, sequencing reads mapped to mitochondria DNA were removed from the bam files using the samtools view. […] Next, the bam files were quantified against gencode (v27lift37) annotation using Stringtie (v. 1.3.4d) with the default settings.
After obtaining the gene count matrix from Stringtie, we imported it into R and normalized the data following the pipeline of DESeq2. […] By calling the DESeq function, we determined genes with significant expression changes between the PRMT5 WT and KO samples thresholding at an adjusted P value of 0.01. […]

**Q.** With `Nc1ccn([C@@H]2O[C@H](CO)[C@@H](O)C2(F)F)c(=O)n1` [Gem, 2′,2′-difluoro 2′-deoxycytidine] as the compound, how does the genes significantly altered (PANC-1 KO cells) read?
**A.** 1,598 genes

**Q.** What about the genes significantly altered (WT PANC-1 cells) of the same compound?
**A.** 21 genes
